# Test results as given in patent US10647687B2, “Spiropyrazine derivatives as inhibitors of non-apoptotic regulated cell-death” (Helmholtz Zentrum München Deutsches Forschungszentrum für …, priority 2014, dated 2020).
# Test system: Pfa1 cells
# Test: Cellular toxicity, Pfa1 cells without TAM (Example B.5)
# Type: cell-based, mouse
# Settings: TC50 divided by the IC50 of Example B.4
# Source text: An estimate of the toxicity for compounds disclosed herein was obtained by using the same assay as described in Example B.4, but without the addition of TAM. […] Such TC50 values obtained for certain compounds disclosed herein, together with an approximate therapeutic window (estimated by dividing each TC50 by the corresponding IC50 determined from example B.4) are shown in Table 3 and Table 4.
row,Compound,Therapeutic Window (approx. fold)
1,C#CCCCCCCCCC(=O)N1CCC2(CC1)Nc1cc(Cl)c(Cl)cc1N=C2NCc1cccc(Cl)c1 [F-26],>50 fold

# Same assay, conditions: TC50 divided by the corresponding IC50 from example B.4 (Pfa1/TAM)
row,Compound,Therapeutic Window (approx.. fold)
1,Clc1ccccc1CNC1=Nc2ccccc2NC12CCNCC2 [N-1],>500 fold
2,Clc1cccc(CNC2=Nc3ccccc3NC23CCNCC3)c1 [N-2],>500 fold
3,Clc1ccc(CNC2=Nc3ccccc3NC23CCNCC3)cc1 [N-3],>5000 fold
4,Fc1cccc(CNC2=Nc3ccccc3NC23CCNCC3)c1 [N-5],>200 fold
5,COc1cccc(CNC2=Nc3ccccc3NC23CCNCC3)c1 [N-14],>100 fold
6,FC(F)(F)c1cccc(CNC2=Nc3ccccc3NC23CCNCC3)c1 [N-23],>1000 fold
7,Clc1ccc(CNC2=Nc3ccccc3NC23CCNCC3)c(Cl)c1 [N-56],>1000 fold
8,Fc1cc(Cl)ccc1CNC1=Nc2ccccc2NC12CCNCC2 [N-61],>1000 fold
9,Clc1cccc(CCNC2=Nc3ccccc3NC23CCNCC3)c1 [N-79],>50 fold
10,CN1CCC2(CC1)Nc1ccccc1N=C2NCc1cccc(Cl)c1 [N-90],>500 fold
11,CC(=O)N1CCC2(CC1)Nc1ccccc1N=C2NCc1cccc(Cl)c1 [N-99],>100 fold
12,Cc1cc2c(cc1C)NC1(CCNCC1)C(NCc1cccc(Cl)c1)=N2 [N-111],>1000 fold
13,Clc1cccc(CNC2=Nc3cc(Cl)c(Cl)cc3NC23CCNCC3)c1 [N-115],>200 fold
14,Fc1cc2c(cc1F)NC1(CCNCC1)C(NCc1cccc(Cl)c1)=N2 [N-117],>20 fold
15,Clc1cccc(CNC2=Nc3ccccc3NC23CCCNCC3)c1 (centres unmarked) [N-185],>5 fold
16,CN1CCC2(CC1)Nc1ccccc1N=C2NCc1ccccc1 [N-204],>50 fold
17,Clc1cc2c(cc1Cl)NC1(CCNCC1)C(NCc1ccccc1)=N2 [N-205],>100 fold
18,c1ccc(CNC2=Nc3ccccc3NC23CCNCC3)cc1 [N-206],>100 fold
19,Clc1cc2c(cc1Cl)NC1(CCNCC1)C(NCc1ccccc1Cl)=N2 [N-207],>500 fold
20,Clc1ccc(CNC2=Nc3cc(Cl)c(Cl)cc3NC23CCNCC3)cc1 [N-208],>500 fold
21,CN1CCC2(CC1)Nc1ccccc1N=C2NCc1ccccc1Cl [N-209],>100 fold
22,Cc1cc2c(cc1C)NC1(CCNCC1)C(NCc1ccccc1)=N2 [N-210],>1000 fold

row,Compound,Therapeutic Window (approx.. fold)
1,Clc1ccc(CNC2=Nc3ccccc3NC23CCNCC3)cc1Cl [N-211],>1000 fold
2,c1ccc(CNC2=Nc3ccccc3NC23CCCNCC3)cc1 (centres unmarked) [N-212],>10 fold
3,CN1CCC2(CC1)Nc1ccccc1N=C2NCc1ccc(Cl)cc1 [N-213],>100 fold
4,Cc1cc2c(cc1C)NC1(CCNCC1)C(NCc1ccc(Cl)cc1)=N2 [N-214],>1000 fold
5,CN1CCC2(CC1)Nc1ccccc1N=C2NCc1cccc(C(F)(F)F)c1 [N-215],>500 fold
6,CCCCCCCC(=O)N1CCC2(CC1)Nc1ccccc1N=C2NCc1ccccc1 [N-216],>20 fold
7,Cc1cc(C)cc(CNC2=Nc3ccccc3NC23CCNCC3)c1 [N-217],>200 fold
8,CC(NC1=Nc2ccccc2NC12CCNCC2)c1ccccc1 (centres unmarked) [N-218],>100 fold
9,Clc1cccc(CNC2=Nc3cc4c(cc3NC23CCNCC3)OCCO4)c1 [N-219],>50 fold
10,c1ccc(C(CNC2=Nc3ccccc3NC23CCNCC3)c2ccccc2)cc1 [N-220],>200 fold
11,Fc1ccc(CNC2=Nc3ccccc3NC23CCNCC3)c(F)c1 [N-221],>200 fold
12,CC(CCc1ccccc1)NC1=Nc2ccccc2NC12CCNCC2 (centres unmarked) [N-222],>200 fold
13,Fc1cc2c(cc1F)NC1(CCNCC1)C(NCc1ccccc1)=N2 [N-223],>1000 fold
14,Cc1cccc(CNC2=Nc3cc(Cl)c(Cl)cc3NC23CCNCC3)c1 [N-224],>1000 fold
15,c1ccc(CCCCNC2=Nc3ccccc3NC23CCNCC3)cc1 [N-225],>50 fold
16,c1ccc(CCNC2=Nc3ccccc3NC23CCNCC3)cc1 [N-226],>200 fold
17,CC(C)(C)c1ccc(CNC2=Nc3ccccc3NC23CCNCC3)cc1 [N-227],>200 fold
18,c1ccc(CCCNC2=Nc3ccccc3NC23CCNCC3)cc1 [N-228],>50 fold
19,CN1CCC2(CC1)Nc1cc(F)c(F)cc1N=C2NCc1ccccc1 [N-229],>50 fold
20,CN1CCC2(CC1)Nc1cc(Cl)c(Cl)cc1N=C2NCc1ccccc1 [N-230],>200 fold
21,Fc1cccc(F)c1CNC1=Nc2ccccc2NC12CCNCC2 [N-231],>200 fold
22,Cc1cc2c(cc1C)NC1(CCNCC1)C(NCc1ccc(Cl)c(Cl)c1)=N2 [N-232],>1000 fold

row,Compound,Therapeutic Window (approx.. fold)
1,Cc1cc2c(cc1C)NC1(CCN(C)CC1)C(NCc1ccccc1)=N2 [N-233],>50 fold
2,CCCCCCCCN1CCC2(CC1)Nc1ccccc1N=C2NCc1ccccc1 [N-234],>50 fold
3,Cc1cccc(CNC2=Nc3cc(C)c(C)cc3NC23CCNCC3)c1 [N-235],>20 fold
4,Clc1cc2c(cc1Cl)NC1(CCCNCC1)C(NCc1ccccc1)=N2 (centres unmarked) [N-236],>50 fold
5,CC1CC2(CCN1)Nc1ccccc1N=C2NCc1cccc(Cl)c1 (centres unmarked) [N-239],>10 fold
6,CC1CC2(CCN1)Nc1ccccc1N=C2NCc1ccccc1 (centres unmarked) [N-240],>50 fold
7,Cc1cc2c(cc1C)NC1(CCNCC1)C(NCc1cccc(C(F)(F)F)c1)=N2 [N-251],>10 fold
8,CC1CN(C)CCC12Nc1ccccc1N=C2NCc1ccccc1 (centres unmarked) [N-256],>20 fold
9,Cc1cc2c(cc1C)NC1(CCNCC1)C(NCc1cccc(F)c1)=N2 [N-257],>20 fold
10,Clc1ccc(CNC2=Nc3cc(Cl)c(Cl)cc3NC23CCNCC3)cc1Cl [N-258],>2 fold
11,Fc1cc2c(cc1F)NC1(CCNCC1)C(NCc1ccccc1Cl)=N2 [N-259],>50 fold
12,FC(F)(F)c1cccc(CNC2=Nc3cc(Cl)c(Cl)cc3NC23CCNCC3)c1 [N-260],>20 fold
13,CCCCCCCCCCCCN1CCC2(CC1)Nc1ccccc1N=C2NCc1ccccc1 [N-261],>20 fold
14,Cc1cc(C)cc(CNC2=Nc3cc(C)c(C)cc3NC23CCNCC3)c1 [N-262],>10 fold
15,Clc1ccccc1CNC1=Nc2ccccc2NC12CCOCC2 [O/S-1],>100 fold
16,Clc1cccc(CNC2=Nc3ccccc3NC23CCOCC3)c1 [O/S-2],>50 fold
17,Clc1ccc(CNC2=Nc3ccccc3NC23CCOCC3)cc1 [O/S-3],>50 fold
18,Fc1cccc(CNC2=Nc3ccccc3NC23CCOCC3)c1 [O/S-5],>50 fold
19,Cc1cccc(CNC2=Nc3ccccc3NC23CCOCC3)c1 [O/S-11],>50 fold
20,COc1cccc(CNC2=Nc3ccccc3NC23CCOCC3)c1 [O/S-14],>20 fold
21,FC(F)(F)c1cccc(CNC2=Nc3ccccc3NC23CCOCC3)c1 [O/S-23],>100 fold
22,Fc1cc(Cl)ccc1CNC1=Nc2ccccc2NC12CCOCC2 [O/S-61],>50 fold

row,Compound,Therapeutic Window (approx.. fold)
1,Clc1cccc(CCNC2=Nc3ccccc3NC23CCOCC3)c1 [O/S-79],>50 fold
2,Clc1cccc(CNC2=Nc3cc(Cl)c(Cl)cc3NC23CCOCC3)c1 [O/S-94],>200 fold
3,Clc1ccccc1CNC1=Nc2ccccc2NC12CCSCC2 [O/S-167],>100 fold
4,Clc1cccc(CNC2=Nc3ccccc3NC23CCSCC3)c1 [O/S-168],>200 fold
5,Clc1ccc(CNC2=Nc3ccccc3NC23CCSCC3)cc1 [O/S-169],>50 fold
6,FC(F)(F)c1cccc(CNC2=Nc3ccccc3NC23CCSCC3)c1 [O/S-189],>20 fold
7,c1ccc(CNC2=Nc3ccccc3NC23CCOCC3)cc1 [O/S-337],>20 fold
8,c1ccc(CNC2=Nc3ccccc3NC23CCSCC3)cc1 [O/S-338],>100 fold
9,Clc1cc2c(cc1Cl)NC1(CCOCC1)C(NCc1ccccc1)=N2 [O/S-339],>1000 fold
10,Cc1cc2c(cc1C)NC1(CCOCC1)C(NCc1ccccc1)=N2 [O/S-340],>100 fold
11,Fc1cccc(F)c1CNC1=Nc2ccccc2NC12CCOCC2 [O/S-341],>50 fold
12,Cc1cccc(CNC2=Nc3cc(Cl)c(Cl)cc3NC23CCOCC3)c1 [O/S-342],>500 fold
13,c1ccc(CCCNC2=Nc3ccccc3NC23CCOCC3)cc1 [O/S-343],>20 fold
14,Cc1cc(C)cc(CNC2=Nc3ccccc3NC23CCOCC3)c1 [O/S-344],>50 fold
15,Clc1ccc(CNC2=Nc3ccccc3NC23CCOCC3)cc1Cl [O/S-345],>500 fold
16,Fc1cc2c(cc1F)NC1(CCOCC1)C(NCc1ccccc1)=N2 [O/S-346],>200 fold
17,c1ccc(CCNC2=Nc3ccccc3NC23CCOCC3)cc1 [O/S-347],>20 fold
18,CC(NC1=Nc2ccccc2NC12CCOCC2)c1ccccc1 (centres unmarked) [O/S-348],>20 fold
19,Clc1cc2c(cc1Cl)NC1(CCSCC1)C(NCc1ccccc1)=N2 [O/S-349],>200 fold
